Test [1] concerns the target T1, recombinant, depyrogenated truncated Tissue Factor (amino acids 1-219), from expression vector pswc7 (human), P13726.
T1 chain: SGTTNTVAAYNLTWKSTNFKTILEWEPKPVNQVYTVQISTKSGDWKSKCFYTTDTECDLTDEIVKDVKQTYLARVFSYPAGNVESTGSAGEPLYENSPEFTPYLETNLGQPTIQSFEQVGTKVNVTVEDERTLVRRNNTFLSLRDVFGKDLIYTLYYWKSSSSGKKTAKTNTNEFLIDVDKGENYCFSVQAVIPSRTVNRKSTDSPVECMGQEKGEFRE
As to the kind of experiment: SPR (Biacore), tTF preincubated with LPS (10 µg/ml) injected over immobilized tTF. Conditions: remark: other sources report otherwise.

The target of test [2] is T1, recombinant, depyrogenated truncated …. As to the kind of experiment: SPR (Biacore), tTF alone injected over tTF immobilized by amine coupling or captured by an anti-human TF antibody. The settings on record: remark: other sources report otherwise.

These are yes or no findings as the source states them, for the method shown.

B1: recombinant, depyrogenated truncated Tissue Factor (amino acids 1-219), from expression vector pswc7, P13726 33-251 (receptor, human, UniProt P13726 33-251, looked up)
chain: SGTTNTVAAYNLTWKSTNFKTILEWEPKPVNQVYTVQISTKSGDWKSKCFYTTDTECDLTDEIVKDVKQTYLARVFSYPAGNVESTGSAGEPLYENSPEFTPYLETNLGQPTIQSFEQVGTKVNVTVEDERTLVRRNNTFLSLRDVFGKDLIYTLYYWKSSSSGKKTAKTNTNEFLIDVDKGENYCFSVQAVIPSRTVNRKSTDSPVECMGQEKGEFRE
Consider B1, for which the binding result in test [1] and in test [2] was “no binding (tested: 30 µg/ml)” in each case.

These data come from patent US20030211075A1 (priority 2001, published 2003).
